Results reported in article PMC10998843.
These are yes or no findings as the source states them, for the method shown. Binding calls can cover weak binding; strength is not graded here. For some of these results: Sequences can lack the tags named with a protein. For some of these results: Binding seen in cells or lysates may run through a third protein.

Assays:
[1] = target: MtKNOX7-GFP (Medicago truncatula); test: co-IP; MtKNOX-GFP and PINNA1-7Myc co-expressed in N. benthamiana leaves; total protein extract precipitated with GFP-Trap magnetic agarose beads, 4 °C, 4 h, 150 mM NaCl, 0.5% Triton X-100, pH 7.5; blot with anti-Myc
[2] = target: MtKNOX6-GFP (Medicago truncatula); test: as above
[3] = target: MtKNOX1-GFP (Medicago truncatula); test: as above
[4] = target: MtKNOX2-GFP (Medicago truncatula); test: as above
[5] = target: MtKNOX1-YN (Medicago truncatula); test: split reporter; BiFC: MtKNOX-YN and PINNA1-YC co-infiltrated into N. benthamiana leaves by Agrobacterium GV3101; YFP signal by confocal microscopy
[6] = target: MtKNOX7-YN (Medicago truncatula); test: as above
[7] = target: MtKNOX2-YN (Medicago truncatula); test: as above
[8] = target: MtKNOX6-YN (Medicago truncatula); test: as above
[9] = target: MtKNOX7 MEINOX1 domain, BD fusion (Medicago truncatula); test: two-hybrid; baits in pGBKT7 (full length or truncated MEINOX domains), prey PINNA1-AD in pGADT7; yeast strain AH109; selective medium SD/-Leu/-Trp/-His/X-a-gal/15 mM 3-AT; X-a-Gal filter assay
[10] = target: MtKNOX6-BD (Medicago truncatula); test: as above
[11] = target: MtKNOX2 MEINOX2 domain, BD fusion (Medicago truncatula); test: as above
[12] = target: MtKNOX1-BD (Medicago truncatula); test: as above
[13] = target: MtKNOX1 MEINOX2 domain, BD fusion (Medicago truncatula); test: as above
[14] = target: MtKNOX7-BD (Medicago truncatula); test: as above
[15] = target: MtKNOX6 MEINOX2 domain, BD fusion (Medicago truncatula); test: as above
[16] = target: MtKNOX2-BD (Medicago truncatula); test: as above

Measured: binding

B1: PINNA1-7Myc (protein, UniProt A0A6C0N3V9 1-443)
chain: MMSNSMTHQNQFENQELLGGGYVSSSLRNNNAYHESLGTFSNNIGLAQGSEMSHTRHLMDLLGAANENNHQTQQGLSLSLGSHMLVDEYRNRSLNQGLMINPSYFMPGQDQTREPCNQPVVENLTSDYFFSGGSGTFASGSNNNNSLLLNRSTSTSYGSESFGSVIGNSRYLKPVQSLLEDLVDVGGNVIDRMNEKYAEKLFHGSRTGARTLSSELKAELRIHGHLLADKHEHQVKIAKLISLLDEVEGRYEKYYHQMEEVVSSFEMIAGLGAAKCYTALALQAMSRHFCSLRDAIMSQINAEKRKLFQDVPKINSGLSQLSLFERDNNRQTRMSLQQLGVIQNQRQVWRPIRGLPETSVAILRAWLFEHFLHPYPNDSEKLILASQTGLTKNQVSNWFINARVRLWKPMIEEMYKEEFGDSSEDSNPPANNFMSREDSTVED
binds: [1] | [2] | [3] | [4]

B2: PINNA1-YC (protein, UniProt A0A6C0N3V9 1-443)
chain: B1 chain
binds: [5] | [6] | [7] | [8]

B3: PINNA1-AD (protein, UniProt A0A6C0N3V9 1-443)
chain: B1 chain
binds: [9] | [10] | [11] | [12] | [13] | [14] | [15] | [16]
